Data as given in PubChem BioAssay AID504791 (Drosophila RNAi Screening Center, 2011).

Test: 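Factors in Argonaute-based small RNA production and activity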 (primary screen)
System: Drosophila S2-derived reporter cells
Reagents: long dsRNA against Drosophila genes, about 150-250 ng dsRNA per well (siRNA assay); about 80-120 ng (miRNA assay)
Timing: about 5 days (siRNA assay); about 4 days (miRNA assay)
Challenge: copper sulfate induction of reporters: 25 µM (siRNA assay); 200 mM stated (miRNA assay), 1-2 days before reading
Measured: 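Dual luciferase assay: Renilla to firefly signal ratio in each well, scaled to the mean ratio of its plate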
Scale: siRNA reporter hit score: higher = 3 marks a strong hit with raised ratio; -3 a strong hit with lowered ratio
Hit rule: 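a well was a first-pass pick when its plate-scaled ratio rose above 1.5 (siRNA assay) or 1.6 (miRNA assay), or dropped below 0.6; a gene counted only if two separate dsRNAs agreed on retest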
In all, the deposit lists about 23,000 reagents; shown is a random part of those with a known target gene and a result. Of all reagents, 199 (0.86%) are marked active. 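Plate-scaled ratios behind the calls are not deposited; printed light signals are raw; many rows marked increased or decreased are still called inactive.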 A number with no mark means an inactive call. Names joined by + are all predicted targets of the reagent. Reagent sequences are not shown.

target	amplicon	siRNA reporter hit score	stable siRNA reporter change	miRNA reporter change	stable assay Renilla, run 1 (luminescence)	stable assay firefly, run 1 (luminescence)
CG14187 (GeneID 40199)	DRSC10186				6610	4.13e5
bumpel (GeneID 41368)	DRSC16100				6780	4.34e5
CG3764 (GeneID 39902)	DRSC10375				7908	3.74e5
CG13362 (GeneID 31018)	DRSC17897				7002	3.73e5
CG34337 (GeneID 5740569)	DRSC18435				4910	2.66e5
Zn72D (GeneID 39764)	DRSC11318				5796	2.41e5
Sfxn1-3 (GeneID 40552)	DRSC12183				7063	3.33e5
U2af50 (GeneID 32602)	DRSC20297				11607	9.02e5
U2af50 (GeneID 32602)	DRSC22867				6675	5.87e5
Acox57D-p (GeneID 37445)	DRSC04560				1.93e5	3.96e5
CG9411 (GeneID 32392)	DRSC20184				8574	4.98e5
CG5003 (GeneID 43344)	DRSC15694				9695	6.57e5
Lrrk (GeneID 42447)	DRSC15816		reporter ratio raised past the hit cutoff		2899	86153
Lrrk (GeneID 42447)	DRSC21971				8790	7.27e5
TwdlS (GeneID 43209)	DRSC14737				6595	3.35e5
Kank (GeneID 36668)	DRSC05513				6611	4.10e5
Kank (GeneID 36668)	DRSC05933			reporter ratio lowered past the hit cutoff	8285	5.01e5
CG5446 (GeneID 34655)	DRSC02862				5895	4.15e5
WASp (GeneID 43402)	DRSC15032				7552	4.14e5
Lpin (GeneID 35790)	DRSC07241			reporter ratio lowered past the hit cutoff	8842	4.46e5
CG3257 (GeneID 37862)	DRSC04351				7038	1.39e6
ND-39 (GeneID 40272)	DRSC11791				7630	3.85e5
GABA-B-R2 (GeneID 42561)	DRSC14134				4572	3.51e5
betaGlu (GeneID 43746)	DRSC15419				7435	4.45e5
CG31922 (GeneID 319028)	DRSC21703				9298	5.00e5
CG31693 (GeneID 318887)	DRSC03674				5432	2.85e5
CG14630 (GeneID 44620)	DRSC18166				5380	3.75e5
CG14630 (GeneID 44620)	DRSC18653				6655	3.36e5
CG7484 (GeneID 39969)	DRSC10853				7116	3.46e5
CG3902 (GeneID 40059)	DRSC10387				6351	4.65e5
Gprk2 (GeneID 49045)	DRSC16682	3 (active)	reporter ratio lowered past the hit cutoff	reporter ratio lowered past the hit cutoff	6666	7.13e5
Gprk2 (GeneID 49045)	DRSC23336				4808	4.32e5
CG31861 (GeneID 318988)	DRSC21665				10215	6.24e5
CkIIalpha (GeneID 48448)	DRSC11946			reporter ratio lowered past the hit cutoff	5408	4.66e5
CG17883 (GeneID 3355139)	DRSC07838				5807	3.06e5
CG30398 (GeneID 246591)	DRSC03891				5371	4.49e5
CG7992 (GeneID 32917)	DRSC20070				5171	3.93e5
CG2003 (GeneID 43761)	DRSC15411				6467	3.46e5
ncm (GeneID 35099)	DRSC02179				6023	1.28e6
mats (GeneID 42634)	DRSC13562				3799	3.62e5
mats (GeneID 42634)	DRSC14702				8114	3.79e5
CG5554 (GeneID 37775)	DRSC04513				5135	2.90e5
Osi12 (GeneID 40766)	DRSC12177				7444	4.05e5
puml (GeneID 35733)	DRSC06793				6879	4.29e5
Rgk2 (GeneID 37132)	DRSC06503				6858	3.08e5
Rgk2 (GeneID 37132)	DRSC21651				8377	4.65e5
Cul2 (GeneID 35420)	DRSC03710				58971	4.66e5
CG15522 (GeneID 43546)	DRSC15059				7130	4.15e5
lncRNA:CR32657 (GeneID 3772397)	DRSC19403				4200	2.93e5
Ent1 (GeneID 33207)	DRSC00330				14940	5.01e5
vnc + CG42455	DRSC09867				6696	3.28e5
CG42457 (retired record) + cpo	DRSC13273				2787	2.90e5
CG42457 (retired record) + cpo	DRSC14503		reporter ratio raised past the hit cutoff		6215	1.80e5
CG42457 (retired record) + cpo	DRSC15327				5404	1.99e5
CG42457 (retired record) + cpo	DRSC16926				6026	2.42e5
CG42457 (retired record) + cpo	DRSC23006				3863	3.62e5
ari-1 (GeneID 32796)	DRSC20308				4916	4.25e5
ari-1 (GeneID 32796)	DRSC21603				9623	4.12e5
CG13049 (GeneID 39788)	DRSC09930				6667	3.37e5
Zasp67 (GeneID 39148)	DRSC10169				6555	4.55e5
CG12506 (GeneID 33249)	DRSC00347				7895	4.79e5
ana3 (GeneID 36341)	DRSC06289				6882	3.13e5
CG7149 (GeneID 34063)	DRSC03016				14838	5.07e5
COX6CL (GeneID 318868)	DRSC00895				5079	5.12e5
Chmp1 (GeneID 40036)	DRSC10401				11843	4.23e5
Osi11 (GeneID 40765)	DRSC12282				6431	4.99e5
CG30094 (GeneID 246452)	DRSC22268				9078	4.98e5
edin (GeneID 317900)	DRSC09488				6099	5.77e5
BoYb (GeneID 40512)	DRSC11637				6488	2.54e5
beat-Ic (GeneID 34945)	DRSC01524				5860	3.50e5
beat-Ic (GeneID 34945)	DRSC03491				7387	3.19e5
CG7906 (GeneID 39575)	DRSC10928				7750	2.95e5
Rsph3 (GeneID 38751)	DRSC09696				9078	4.65e5
Rsph3 (GeneID 38751)	DRSC10211				5427	4.03e5
clumsy (GeneID 35394)	DRSC03111				5902	3.27e5
apolpp (GeneID 43827)	DRSC17216				6264	3.07e5
CG15226 (retired record) (GeneID 37353)	DRSC03829				6586	4.42e5
CG15226 (retired record) (GeneID 37353)	DRSC04233				6755	4.13e5
CG32188 (GeneID 317901)	DRSC09510				4986	3.76e5
CG31638 (GeneID 33910)	DRSC02269				8158	3.52e5
CG31638 (GeneID 33910)	DRSC03259				7632	5.84e5
CG14071 (GeneID 34507)	DRSC02374				7427	4.09e5
Cp36 (GeneID 31787)	DRSC18452				4976	2.78e5
CG3065 (GeneID 37818)	DRSC04333				37643	1.28e6
kat80 (GeneID 32581)	DRSC20344				6012	3.93e5
kat80 (GeneID 32581)	DRSC20345				4807	3.82e5
Alms1a (GeneID 31393)	DRSC18558				5715	2.85e5
CG9672 (GeneID 32651)	DRSC20201				8513	6.89e5
CG10383 (GeneID 35123)	DRSC02050				6634	1.51e6
obst-E (GeneID 33806)	DRSC02128				22179	4.47e5
CG30031 + deltaTry + gammaTry	DRSC07622				5875	3.37e5
CG11085 (GeneID 32213)	DRSC19374				4964	4.88e5
CG11085 (GeneID 32213)	DRSC22832				4424	3.74e5
nac (GeneID 40981)	DRSC16520				6914	4.64e5
Hr83 (GeneID 40783)	DRSC12521				6507	3.59e5
atk (GeneID 40266)	DRSC11418				6572	3.81e5
atk (GeneID 40266)	DRSC11769				6983	4.34e5
Osi20 (GeneID 40777)	DRSC12568				6538	3.75e5
sowah (GeneID 39438)	DRSC09186				5123	4.48e5
sowah (GeneID 39438)	DRSC09758				8089	4.03e5
CG13594 (GeneID 37940)	DRSC04229				6715	3.61e5
CG13594 (GeneID 37940)	DRSC23254				3864	4.28e5
nudE (GeneID 39169)	DRSC09000				5636	5.54e5
nudE (GeneID 39169)	DRSC10962				6747	3.52e5
Vha100-3 (GeneID 246543)	DRSC05760				5714	4.02e5
DCAF12 (GeneID 41460)	DRSC15475				8326	4.18e5
